Source: PubChem BioAssay AID652054 (National Center for Advancing Translational Sciences (NCATS), 2013)
The campaign covered roughly 360,000 compounds. About 9,100 (2.5%) were called active. This list was built around the results that the source calls inconclusive (neither active nor inactive); the mix of calls is not that of the screen. Cut-off read from the data, not from the text of the source: active = max response below about -50%; inconclusive = no clear call, values can overlap the other calls; inactive = above that.

Protein sequences, listed by entry. Tags and fused reporters are not part of them.
UniProt P35462, whole entry, looked up: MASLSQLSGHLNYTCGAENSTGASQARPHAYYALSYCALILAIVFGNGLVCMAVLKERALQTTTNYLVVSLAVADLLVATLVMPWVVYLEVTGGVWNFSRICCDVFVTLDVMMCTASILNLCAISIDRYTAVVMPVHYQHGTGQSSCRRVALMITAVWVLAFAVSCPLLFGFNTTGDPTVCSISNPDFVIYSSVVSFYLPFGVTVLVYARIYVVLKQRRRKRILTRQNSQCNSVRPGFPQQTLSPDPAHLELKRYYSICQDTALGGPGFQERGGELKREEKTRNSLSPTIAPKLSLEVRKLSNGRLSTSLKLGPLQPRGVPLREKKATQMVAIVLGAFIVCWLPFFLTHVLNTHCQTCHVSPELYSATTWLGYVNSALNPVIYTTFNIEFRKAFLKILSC

The compounds below were run against D(3) dopamine receptor (Homo sapiens) (UniProt P35462) (assay: qHTS of D3 Dopamine Receptor Antagonist: qHTS). Details: D3R cells, DiscoveRx beta-arrestin luminescence, antagonist mode; stronger effect = lower value.
Method in brief: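 Cells plated overnight at 1500 cells/well, then exposed to library compounds with dopamine controls for 90 minutes at 37 degrees C. DiscoveRx reagent added for 30–60 minutes at room temperature; luminescence read, quantitative HTS format.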
% is set by controls: 0 for no effect and ±100 for the full control effect.

| SMILES | max response, negative = inhibition |
| --- | --- |
| CC(C)c1ccc2c(c1)C(c1ccc(N3CCOCC3)cc1)=NNC(c1cccs1)=N2 | inconclusive: -45.3% |
| OCCCn1c(C2CCCN2c2nc(-c3ccc(Cl)cc3)cs2)nc2cc(Cl)c(N3CCCCC3)cc21 (centres undefined) | inconclusive: -32.5% |
| Cc1ccc(S(=O)(=O)N/N=C/c2ccc3nccnc3c2)cc1 | inconclusive: -35.3% |
| COc1ccc(NC(=O)CSc2nnc(-c3ccccc3)n2Cc2ccco2)c(OC)c1 | inconclusive: -35.4% |
| N#CC1=C2SCN(Cc3ccco3)CN2C(=O)CC1c1cccc2ccccc12 (centres undefined) | inconclusive: -40.3% |
| COc1ccc(NC(=O)n2ncc3c(C)cccc32)cc1 | inconclusive: -32.5% |
| COc1ccc2ccccc2c1/C=N\NC(=O)c1ccc(C)s1 | inconclusive: -49.5% |
| C#CCOCCOCCOCCNc1nc(N2CCN(C(=O)[C@H](CCC(=O)O)n3cc([C@@H](N)CC(N)=O)nn3)CC2)nc(N2CCN(C(=O)[C@H](CCC(=O)O)n3cc([C@@H](N)CC(N)=O)nn3)CC2)n1 | inconclusive: -31.5% |
| Cc1ccc(NC(=O)Cn2c(/C=C/c3ccccc3)nc3ccccc32)cc1C | inactive: -13.2% |
| COc1cc([N+](=O)[O-])cc(/C=N/NC(=O)Cn2nc(C)cc2C)c1O | active: -59.9% |
| CN1C(=O)[C@H]2[C@@H](/C=C/c3ccccc3)N3C(=O)CN(CCO)C(=O)[C@@]3(C)[C@H]2C1=O | inconclusive: -39.5% |
| CCN(CCCNC(=O)C1c2ccccc2C(=O)N(CCOC)C1c1ccc(F)cc1)Cc1ccccc1 (centres undefined) | inconclusive: -30.3% |
| Cc1ccc(CNc2nc3cc(-c4ccccc4C)sc3c(=O)n2C)c(C)c1 | inactive: -6.23% |
| CCOC(=O)c1nnn(-c2nonc2-n2cccc2)c1CCl | inconclusive: -33.7% |
| C=CC[C@@H](CC(=O)N[C@H](CO)Cc1ccccc1)C(=O)N[C@@H](C)COC(=O)[C@@H](CC=C)CC(=O)OC(C)(C)C | inconclusive: -36.5% |
| COc1ccc(OC)c(NC(=O)NCc2ccc(F)cc2)c1 | inconclusive: -36.8% |
| O=C(CNC(=O)c1cccc(F)c1)N/N=C/c1ccc(O)c([N+](=O)[O-])c1 | inactive: -28.6% |
| O=C(Nc1cccnc1)c1ccc(NC(=O)c2ccco2)cc1 | inactive: 8.61% |
| CC(=O)N1CCc2cc(S(=O)(=O)NCCCN3CCN(Cc4ccccc4)CC3)ccc21 | inconclusive: -46.7% |
| CC(C)C[C@H]1CNC(=S)N1CC1CCN(CCCCc2ccccc2)CC1 | active: -91.5% |
| COc1ccc(Nc2ccc([N+](=O)[O-])cn2)cc1 | inconclusive: -33.9% |
| COc1ccc(/C=C/C(=O)OCC(=O)Nc2ccc3c(c2)OCO3)cc1 | inconclusive: -33.7% |
| COC(=O)c1ccc(CSCC(=O)Nc2cc(OC)cc(OC)c2)o1 | inconclusive: -35% |
| CSc1cc(C)n(-c2ccc(Cl)cc2)c(=S)c1C(C)=O | inconclusive: -30.2% |
| COc1cccc(-c2nnc(SCC(=O)Nc3cc(C)on3)o2)c1 | active: -65.3% |
| Cn1c(N)c(C(=O)COC(=O)c2ccc(OC(F)F)cc2)c(=O)n(C)c1=O | inactive: -8.48% |
| CC(C)(C)C(=O)Nc1nnc(COc2ccc(Cl)cc2)s1 | inactive: 6.08% |

In a second layout: results already given
SMILES	max response, negative = inhibition
COc1ccc(/C=C/C(=O)OCC(=O)Nc2ccc3c(c2)OCO3)cc1	inconclusive: -33.7%
COC(=O)c1ccc(CSCC(=O)Nc2cc(OC)cc(OC)c2)o1	inconclusive: -35%
CSc1cc(C)n(-c2ccc(Cl)cc2)c(=S)c1C(C)=O	inconclusive: -30.2%
COc1cccc(-c2nnc(SCC(=O)Nc3cc(C)on3)o2)c1	active: -65.3%

The results go on:

| SMILES | max response, negative = inhibition |
| --- | --- |
| O=[N+]([O-])c1ccc(CSc2ncnc3ccccc23)cc1 | inconclusive: -42.4% |
| O=C(NCC1CCCO1)c1ccc2ccccc2n1 (centres undefined) | inconclusive: -34% |
| CCCn1c(NCc2ccccn2)nc2ccccc21 | inconclusive: -34.2% |
| CCN(CC)C(=O)N1c2ccccc2CC(N(CC)CC)c2ccccc21 (centres undefined) | inconclusive: -42.7% |
| Cc1cccc(C)c1C(O)c1ncc(-c2cccc3ccccc23)[nH]1 (centres undefined) | active: -75.7% |
| Cc1cccc(C(=O)NC2CCN(C(=S)NCc3ccco3)CC2)c1 | inconclusive: -38.5% |
| CSc1ccc(/C=N/NC(=O)CN2CCN(Cc3ccc(Cl)cc3)CC2)cc1 | inconclusive: -35.3% |
| N#Cc1ccccc1S(=O)(=O)N1CCN(C(=O)[C@H](Cc2ccccc2)NC(=O)c2ccco2)CC1 | inconclusive: -34.8% |
| COc1ccc(Nc2nc3ccccc3nc2NS(=O)(=O)c2cccs2)c(OC)c1 | active: -101% |
| CC(C)OC(=O)NC(C)(C)COC(=O)Nc1cccc(Cl)c1 | inconclusive: -32.9% |
| O=C(CN1CCN(c2cccc(C(F)(F)F)c2)CC1)N(C1CC1)C1CCS(=O)(=O)C1 (centres undefined) | inactive: 7.23% |
| Cc1ccccc1OCCNc1cc(N2CCN(CCO)CC2)ccc1[N+](=O)[O-] | active: -64.4% |
| Cc1ccc(Cl)cc1N1CCN(CC(=O)Nc2ccc(CN3CCCCC3)cc2)CC1 | active: -64.9% |
| Cc1ccc2c(c1)N(C(=O)CCC(=O)NCCCN1CCC(Cc3ccccc3)CC1)CCO2 | inconclusive: -45.7% |
| CCCS(=O)(=O)NC(=O)C1(C)CCCN(C(=O)c2cccc(OC(F)(F)F)c2)C1 (centres undefined) | inconclusive: -39.4% |
| COCCNC(=O)CNC(=S)N(Cc1ccccc1)Cc1cccnc1 | inconclusive: -33.2% |
| CC(C)Nc1nc2ccccc2c(=O)[nH]1 | inactive: 11.8% |
| N/C(=N\O)C1COc2ccccc2O1 (centres undefined) | inconclusive: -42.3% |
| Cc1ccc([N+](=O)[O-])c(OCCCN2CCC(Cc3ccccc3)CC2)c1 | active: -95.5% |
| CC(O)(CS(=O)(=O)Cc1cccc(C(F)(F)F)c1)C(=O)Nc1cccc(C(F)(F)F)c1 (centres undefined) | inconclusive: -37.3% |
| COc1ccccc1N1CCN(CC(O)c2ccc3cc[nH]c3c2)CC1 (centres undefined) | active: -82.2% |
| CN(Cc1ccccc1)C(=O)C1CCN(S(=O)(=O)c2cccc3nonc23)CC1 | inconclusive: -45.9% |
| CCC(C)[C@H]1COCCS(=O)(=O)N1Cc1ccccc1F (some centres undefined) | inactive: -1.31% |
| CCOc1cc(CNc2ccc3c(c2)CCC3)ccc1O | inconclusive: -36.7% |
| COc1ccc(NC(=O)CN(C)S(=O)(=O)c2ccc3c(c2)CCCN3C(C)=O)cc1 | inactive: 12.4% |
| COc1ccc(NS(=O)(=O)c2cccc(C(=O)O)c2)cc1 | inactive: 10.8% |
| COc1ccc(NC(=O)CN2CCN(CC(=O)Nc3ccc(F)cc3)CC2)c(OC)c1 | inactive: -0.501% |
